# Values from PubChem BioAssay AID504784 (Drosophila RNAi Screening Center, 2011).
# Test: 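Fly genes whose silencing alters how much lipid cells keep in droplets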 (primary screen)
# System: Drosophila Kc167 embryonic cells
# Reagents: long dsRNA against Drosophila genes, about 250 ng dsRNA per well
# Duration: 4 days
# Treatment: cells fed 400 µM oleic acid bound to BSA
# Read-out: 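Microscope images give a droplet-to-nucleus area ratio, taken as log and converted to a screen-wide B-score; higher values mean greater lipid storage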
# Reading the numbers: droplet/nuclear area B-score: higher = more stored lipid (overstorage)
# The screen tested about 17,000 reagents; below is a random part of those that have a named target and a result. 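Each column is one replicate's B-score; the combined score over replicates was not deposited, so single values may mislead.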 Names joined by + are all predicted targets of the reagent. No sequences are given here.
Gene,amplicon,"droplet/nuclear area B-score, replicate 1","droplet/nuclear area B-score, replicate 2","droplet/nuclear area B-score, replicate 3"
Yp1,DRSC18731,0.877,2.12,0.467
Targ2,DRSC21970,0.995,0.561,
Mis12,DRSC10299,0.824,1.32,
betaTub56D,DRSC07583,-0.0104,-0.221,
trpl,DRSC06728,2.25,-0.12,
trpl,DRSC06729,3.92,2.98,-0.539
Oseg6,DRSC06066,-1.73,4.72,
CG11298,DRSC04100,1.34,-0.248,
CG5890,DRSC15909,-1.33,0.0197,
CG30429,DRSC04040,-0.143,0.0494,
boly,DRSC21629,-1.77,-1.19,
CG4884,DRSC15671,1.77,-2.46,
CG5274,DRSC11774,-1.31,0.00516,-1.12
Abd-B,DRSC14098,-1.71,-0.0951,
Abd-B,DRSC14337,-1.64,0.913,
hep,DRSC19839,-0.00192,0.029,-1.48
hep,DRSC20337,0.261,0.265,-2.15
Mulk,DRSC02658,0.714,-0.829,
AlkB,DRSC19115,0.0496,-2.23,
CG1416,DRSC03706,1.51,0.0389,

Entries listed so far whose gene name starts with B or b (2):
Gene,amplicon,"droplet/nuclear area B-score, replicate 1","droplet/nuclear area B-score, replicate 2","droplet/nuclear area B-score, replicate 3"
betaTub56D,DRSC07583,-0.0104,-0.221,
boly,DRSC21629,-1.77,-1.19,

Further results follow:
Gene,amplicon,"droplet/nuclear area B-score, replicate 1","droplet/nuclear area B-score, replicate 2","droplet/nuclear area B-score, replicate 3"
CG6870,DRSC02998,-0.149,-1.41,
CG32533,DRSC19443,-2.87,-0.734,
CG32533,DRSC19553,1.31,3.77,
CG14834,DRSC10204,-1.75,-1.38,
Cirl,DRSC21942,4.91,2.31,
Cirl,DRSC23235,-1.93,-1.05,
PpD5,DRSC04641,0.0666,-2.68,
PpD5,DRSC23312,-0.731,0.0182,
CCT3,DRSC16602,0.287,0.1,
Akt,DRSC14108,0.18,-0.102,
CG16998,DRSC10235,-2.15,-0.188,
mal,DRSC20581,-0.367,-0.19,
Sr-CIV,DRSC00575,0.723,-1.08,
ACXA,DRSC00844,0.807,0.0621,
CG7058,DRSC20021,-0.952,0.336,
CG13634,DRSC14635,-1.28,1.19,
Lnk,DRSC16729,-0.102,,
mbm + CG11555,DRSC00315,1.8,-3.87,
CG4793,DRSC01966,0.273,0.417,
Nmnat,DRSC14644,-0.199,-2.36,
CG15084,DRSC06515,-2.83,-5.73,-1.11
CG15084,DRSC21403,0.345,2.17,
RpS9,DRSC11273,6.51,-2.32,
CG13082,DRSC02186,0.875,1.26,
Etfb,DRSC16324,0.318,,
slpr,DRSC18225,0.708,-0.155,0.00731
slpr,DRSC23321,-1.08,0.116,
CG18764,DRSC15391,-1.87,3.95,
Alg12,DRSC16416,-0.179,-1.88,
Pgm2a,DRSC07068,0.0177,-0.216,
CG7168,DRSC16208,-0.269,0.947,
Tsp47F,DRSC07325,-0.621,-0.244,
CG13989,DRSC02321,-0.017,-2.09,
St4,DRSC07008,0.355,-0.653,
kon,DRSC02033,0.288,-0.488,
CG8607,DRSC11012,-0.0118,0.352,
